{
  "source": "patent US7988944B2",
  "about": "“Peroxide decomposition catalyst” (Sumitomo Chemical Company, Limited, priority 2005, dated 2011)",
  "data": [
    {"experiment": "Hydrogen peroxide decomposition test in the presence of poly(sodium 4-styrenesulfonate)", "details": "GPC, in terms of polyethylene oxide; Mw(S) before test 11×10^4", "description": "To a mixture of 8.41 μmol (per one metal atom) of a catalyst and 21.1 mg of poly(sodium 4-styrenesulfonate) (product commercially available from Aldrich, weight average molecular weight: about 70,000) are added 1.00 ml of a tartaric acid/sodium tartrate buffer (pH4.0) and 1.00 ml of ethylene glycol. After this catalyst mixture is stirred at 80° C. for 5 minutes, 0.20 ml of an 11.4 mol/l aqueous hydrogen peroxide solution is added, and the mixture is stirred at 80° C. for 20 minutes. A volume of oxygen generated thereupon is measured with a gas burette, and an amount of decomposed hydrogen peroxide is calculated. Thereafter, this reaction solution is diluted and filtrated, and the filtrate is measured by gel permeation chromatography (GPC), thereby, a weight average molecular weight of poly(sodium 4-styrenesulfonate) after a test is obtained. The GPC analysis condition will be shown below. Column: TSKgel α-M (13 μm, 7.8 mmφ×30 cm) manufactured by Tosoh Corporation, column temperature: 40° C., mobile phase: 50 mmol/l aqueous ammonium acetate solution: CH3CN=7:3 (v/v), flow rate: 0.6 ml/min, detector: RI, injection amount: 50 μl. A weight average molecular weight was obtained as a value in terms of polyethylene oxide. The A value is obtained by the (equation 1), and the B value is obtained by the (equation 2).\nMn-bbpr (4.90 mg, 8.41 μmol (per one metal atom)), and poly(sodium 4-sutyrenesulfonate)(21.1 mg (product commercially available from Aldrich, weight average molecular weight: about 70,000)) were weighed in a two-necked flask (25 ml), and a tartaric acid/sodium tartrate buffer (1.00 ml (prepared from 0.20 mol/l tartaric acid aqueous solution and 0.10 mol/l sodium tartrate aqueous solution, pH4.0)) and ethylene glycol (1.00 ml) as a solvent were added thereto, followed by stirring. This was used as a catalyst mixed solution.\nSeptum was attached to one of inlets of the two-necked flask containing this catalyst mixed solution, and the other inlet was collected to a gas burette. This flask was stirred at 80° C. for 5 minutes, a hydrogen peroxide aqueous solution (11.4 mol/l, 0.20 ml (2.28 mmol)) was added via a syringe, and a hydrogen peroxide decomposition reaction was performed at 80° C. for 20 minutes. Generated oxygen was measured with a gas burette, and decomposed hydrogen peroxide was quantitated. An amount of generated oxygen was corrected based on the following blank test. […] This filtrate was GPC-measured, and a weight average molecular weight of poly (sodium 4-sutyrenesulfonate) after a test was obtained.\nPoly(sodium 4-styrenesulfonate) after the hydrogen peroxide decomposition test was GPC-analyzed. […]", "values": [
      {"smiles": "CC(C)(C)c1ccc2c(c1)C1=Nc3c4cc(C(C)(C)C)ccc4c4[n]3[Fe][n]3c(c5ccc(C(C)(C)C)cc5c3=NC3=NC(=N4)c4cc(C(C)(C)C)ccc43)=NC2=N1", "note": "[Fe-pcy (^tBu)]", "Mw, weight average molecular weight of poly(sodium 4-styrenesulfonate) after test": "7.4 × 10^4"},
      {"smiles": "[Cu+2].c1ccc2c(c1)-c1nc-2nc2[n-]c(nc3nc(nc4[n-]c(n1)c1ccccc41)-c1ccccc1-3)c1ccccc21", "note": "[Copper phthalocyanine, copper phthalocyanine]", "Mw, weight average molecular weight of poly(sodium 4-styrenesulfonate) after test": "7.5 × 10^4"},
      {"smiles": "[Co+2].c1ccc2c(c1)-c1nc-2nc2[n-]c(nc3nc(nc4[n-]c(n1)c1ccccc41)-c1ccccc1-3)c1ccccc21", "note": "[Cobalt phthalocyanine, cobalt phthalocyanine]", "Mw, weight average molecular weight of poly(sodium 4-styrenesulfonate) after test": "9.4 × 10^4"},
      {"smiles": "[Fe+2].c1ccc2c(c1)-c1nc-2nc2[n-]c(nc3nc(nc4[n-]c(n1)c1ccccc41)-c1ccccc1-3)c1ccccc21", "note": "[Iron phthalocyanine, iron phthalocyanine]", "Mw, weight average molecular weight of poly(sodium 4-styrenesulfonate) after test": "6.3 × 10^4"}
    ]}
  ]
}
